# How the values were obtained:
# [1] = test system: kainate-induced neuronal toxicity in cortical neurons; assay: Kainate-induced neuronal toxicity in cortical neurons (LDH release); format: cell-based, rat (Wistar, fetal); conditions: 200 μM kainate 24 h; drugs 24 hours before and during exposure (FIG. 4)
# Method: The cortical tissues were dissociated to single cells by gentle trituration. […] The cell suspension was centrifuged at 310×g for 3 min and the resulting pellets were resuspended in the medium described above.
# [2] = test system: NMDA-induced neurotoxicity in CA1 region of organotypic hippocampal slice cultures; assay: NMDA-induced neurotoxicity in organotypic hippocampal slice cultures; format: cell-based, Wistar rat; conditions: 10 μM NMDA 3 hours, NMDA alone 35.1±2.2%
# Method: (§1) Organotypic hippocampal slice cultures were prepared using the basic method of Pringle et al, Brain Research, 755:36-46 (1997) modified as follows. Wistar rat pups (8-11 days old) were decapitated and the hippocampus rapidly dissected into ice-cold Gey's balanced salt solution supplemented with 4.5 mg/ml glucose. Transverse sections (400 μm) were cut on a McIlwain tissue chopper and placed back into ice-cold Gey's balanced salt solution. Slices were separated and plated onto Millicell CM culture inserts (4 per well) and maintained at 37° C./5% CO2 for 14 days. […] Medium was changed every 3-4 days.
# (§2) PI fluorescence was detected using a Leica DMIL inverted microscope fitted with a rhodamine filter set. Any cultures in which PI fluorescence was detected at this stage were excluded from further study. […] Neuronal damage was assessed by PI fluorescence imaging 24 hours after the initiation of the neurotoxic insult. Neurotoxicity protocols are outlined below.
# At the end of this period, cultures were returned to fresh SFM for 21 hours prior to determination of neuronal death by PI imaging.
# (§3) Neuronal damage was assessed using ImageJ software running on a PC. Images were captured using a monochrome CCD camera and saved for otlline analysis. Light transmission images were captured prior to the addition of drugs, and PI fluorescence images recorded at the end of the 24-hour recovery period. The area of the CA1 region was determined from the transmission image. The area of PI fluorescence in the CA1 was measured using the threshold function on ImageJ, and neuronal damage expressed as the percentage of the CA1 in which PI fluorescence was detected above background. Morrison et al, Br. J. Pharmacol., 137:1255-1268 (2002).
# [3] = test system: hypoxia-induced neurodegeneration in CA1 region of organotypic hippocampal slice cultures; assay: Hypoxia-induced neurodegeneration in organotypic hippocampal slice cultures; format: cell-based, Wistar rat
# Method: as §1, §2
# (3) Hypoxia: Hypoxia was performed by exposing cultures to oxygen-deprivation as described previously. Pringle et al, Brain Research, 755:36-46 (1997); Pringle et al, Stroke, 27:2124-2130 (1996). Hypoxia was induced by transferring cultures to SFM (+PI) which had been saturated with 95% N2/5% CO2. Culture plates (without lids) were then sealed into an airtight chamber in which the atmosphere was saturated with 95% N2/5% CO2 by continuously blowing through gas at 10 L/min for ten minutes before being sealed and placed in the incubator for 170 mins (total time of hypoxia was therefore 180 mins). At the end of the period of hypoxia, cultures were returned to normoxic SFM (+PI) and placed back in the incubator for 21 hours. The freeradical scavenger MnTBAP (100 μM) was used as a positive neuroprotective control.
# as §3
# [4] = test system: OGD-induced neurotoxicity in CA1 region of organotypic hippocampal slice cultures; assay: Oxygen-glucose deprivation (OGD) in organotypic hippocampal slice cultures (PI fluorescence in CA1); format: cell-based, Wistar rat; conditions: OGD second series, OGD alone 44.8±3.3%
# Method: as §1, §2
# (2) Oxygen-Glucose Deprivation (OGD): Experimental ischaemia was performed by exposing cultures to oxygen-glucose deprivation (OGD) as described previously. Pringle et al, Brain Research, 755:36-46 (1997); Pringle et al, Stroke, 27:2124-2130 (1996); Morrison et al, Br. J. Pharmacol., 137:1255-1268 (2002). OGD was induced by transferring cultures to glucose-free SFM (+PI) which had been saturated with 95% N2/5% CO2. […]
# as §3, with “Images were captured using a monochrome CCD camera and saved for otlline analysis.” left out, “Morrison et al, Br. J. Pharmacol., 137:1255-1268 (2002).” left out
# [5] = test system: dopamine turnover in mice striatum; assay: Dopamine, DOPAC and HVA content / dopamine turnover in mice striatum (HPLC-ECD); format: in vivo, C57BL/6 mice; conditions: oral, 1 hour before sampling (FIG. 2)
# [6] = test system: excitotoxicity induced by kainate; conditions: Akasofu et al, Eur. J. Pharmacol., 530:215-222 (2006); cited from earlier work
# [7] = test system: AMPA-mediated neurodegeneration in CA1 region of organotypic hippocampal slice cultures; assay: AMPA toxicity in organotypic hippocampal slice cultures (PI fluorescence in CA1); format: cell-based, Wistar rat; conditions: for area of PI fluorescence, % of CA1: 30 μM AMPA, AMPA alone 62.4±2.4%
# Method: as §1, §2
# (1) AMPA: Cultures were transferred to fresh SFM (+PI) containing 30 μM S-AMPA for 3 hours under normal culture conditions. At the end of this period, cultures were returned to fresh SFM for 21 hours prior to determination of neuronal death by PI imaging. GYK152466 (30 μM) was used as a positive, neuroprotective control.
# as §3
# [8] = test system: duroquinone-induced injury in CA1 region of organotypic hippocampal slice cultures; assay: Free radical-mediated toxicity (duroquinone) in organotypic hippocampal slice cultures; format: cell-based, Wistar rat; conditions: 100 μM duroquinone 3 hours, duroquinone alone 51.0±3.4%
# Method: as §1, §2
# (5) Free radical-mediated toxicity (Duroquinone): Duroquinone produces superoxide-mediated neurotoxicity producing a selective neuronal lesion in the CA1 region. Wilde et al, J. Neurochem., 69(2):883-886 (1997). Cultures were transferred to fresh SFM (+PI) containing 100 μM duroquinone for 3 hours under normal culture conditions. At the end of this period, cultures were returned to fresh SFM for 21 hours prior to determination of neuronal death by PI imaging. MnTBAP (100 μM) was used as a positive neuroprotective control.
# as §3, with “Morrison et al, Br. J. Pharmacol., 137:1255-1268 (2002).” left out
# [9] = test system: excitotoxicity induced by NMDA; conditions: Akasofu et al, Eur. J. Pharmacol., 530:215-222 (2006); cited from earlier work
compound,measurement,setting,value
"COc1cc2c(cc1OC)C(=O)C(CC1CCN(Cc3ccccc3)CC1)C2 (stereo not drawn) [donepezil, 1-benzyl-4-((5,6-dimethoxy-1-indanon)-2-yl)methylpiperidine]",neuronal survival (LDH release),[1],modest effect on neuronal survival
same,damage in CA1 (PI fluorescence),[2]; 0.1 μM,23.0±2.4%
same,damage in CA1 (PI fluorescence),[2]; 1 μM,25.2±2.3%
same,damage in CA1 (PI fluorescence),[2]; 10 μM donepezil,14.5±2.2%
same,damage in CA1 (PI fluorescence),"[3]; 0.1 μM, 3 hours hypoxia, first set, hypoxia alone 45.1±3.5%",31.7±4.6%
same,damage in CA1 (PI fluorescence),"[3]; 0.1 μM, hypoxia, second set, hypoxia alone 36.4±3.9%",30.4±3.9%
same,damage in CA1 (PI fluorescence),"[3]; 0.5 μM, hypoxia, repeated experiment, hypoxia alone 36.9+4.4%",25.3±3.6%
same,damage in CA1 (PI fluorescence),"[3]; 1 μM, 3 hours hypoxia, first set, hypoxia alone 45.1±3.5%",14.9±3.2%
same,damage in CA1 (PI fluorescence),"[3]; 10 μM, 3 hours hypoxia, first set, hypoxia alone 45.1±3.5%",12.9±2.9%
same,damage in CA1 (PI fluorescence),[4]; 0.1 μM,49.4±2.7%
same,damage in CA1 (PI fluorescence),[4]; 1 μM,54.1±4.7%
same,damage in CA1 (PI fluorescence),[4]; 10 μM,45.3±3.3%
same,elevation of dopamine metabolite,[5],did not reach significance
same,neuroprotective effects against excitotoxicity induced by kainate,[6],not by kainate
same,"area of PI fluorescence, % of CA1",[7]; 0.1 μM,69.5±2.4%
same,"area of PI fluorescence, % of CA1",[7]; 1 μM,70.7±2.4%
same,"area of PI fluorescence, % of CA1",[7]; 10 μM,70.9%±2.8
same,"PI fluorescence, % of CA1","[7]; 4 hours pre-incubation, AMPA alone 46.5±5.0%",57.4±2.3%
same,"PI fluorescence, % of CA1","[7]; 24 hours pre-incubation, AMPA alone 46.5±5.0%",55.51±2.6%
same,effect on AMPA-mediated toxicity,"[7]; longer pre-incubation times (up to 48 hours), AMPA alone 46.5±5.0%",No effect
same,damage in CA1 (PI fluorescence),[8]; 0.1 μM,56.4±4.4%
same,damage in CA1 (PI fluorescence),[8]; 1 μM,53.2±4.9%
same,damage in CA1 (PI fluorescence),[8]; 10 μM,56.6±4.4%
same,neuroprotective effects against excitotoxicity induced by NMDA,[9],exhibits neuroprotective effects
